# Laboratory results reported in the supplement of paper PMC8728848.
# The other results are listed elsewhere or left out.
# B1: MCL (Mus musculus), Q9Z2H6 (protein)
# chain: MWLEESQMKSKGTRHPQLIPCVFAVVSISFLSACFISTCLVTHHYFLRWTRGSVVKLSDYHTRVTCIREEPQPGATGGTWTCCPVSWRAFQSNCYFPLNDNQTWHESERNCSGMSSHLVTINTEAEQNFVTQLLDKRFSYFLGLADENVEGQWQWVDKTPFNPHTVFWEKGESNDFMEEDCVVLVHVHEKWVWNDFPCHFEVRRICKLPGITFNWKPSK
# What was measured:
# Test in all cases: glycan array binding signal (z-score within array); higher = stronger binding
# Details in all cases: glycan notation: IUPAC condensed, linker removed
# Gal(b1-2)Gal = target: Gal(b1-2)Gal
# Procedure, shortened: (§1)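 Arrays were curated from the Consortium for Functional Glycomics database, 3228 in total, and kept only where the protein sequence was available. Binding is expressed as a within-array Z-score. This score was averaged across arrays of the same protein sequence at different concentrations or buffers and across linkers, and negative values can be read as non-binding.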
# Gal(b1-3)Gal = target: Gal(b1-3)Gal
# Procedure, shortened: as §1
# Gal(b1-3)Gal(b1-4)GlcNAc = target: Gal(b1-3)Gal(b1-4)GlcNAc
# Procedure, shortened: as §1
# Gal(b1-3)GalNAc = target: Gal(b1-3)GalNAc
# Procedure, shortened: as §1
# [1] = target: Gal(b1-3)GalNAc(b1-3)Gal(a1-4)Gal(b1-4)Glc
# Procedure, shortened: as §1
# [2] = target: Gal(b1-3)GalNAc(b1-4)Gal(b1-4)Glc
# Procedure, shortened: as §1
# [3] = target: Gal(b1-3)GalNAc(b1-4)[Neu5Ac(a2-3)]Gal(b1-4)Glc
# Procedure, shortened: as §1
# Gal(b1-3)GlcNAc = target: Gal(b1-3)GlcNAc
# Procedure, shortened: as §1
# [4] = target: Gal(b1-3)GlcNAc(b1-2)Man(a1-3)[Gal(b1-3)GlcNAc(b1-2)Man(a1-6)]Man(b1-4)GlcNAc(b1-4)GlcNAc
# Procedure, shortened: as §1
# [5] = target: Gal(b1-3)GlcNAc(b1-3)Gal(b1-3)GlcNAc
# Procedure, shortened: as §1
# [6] = target: Gal(b1-3)GlcNAc(b1-3)Gal(b1-4)Glc
# Procedure, shortened: as §1
# [7] = target: Gal(b1-3)GlcNAc(b1-3)Gal(b1-4)GlcNAc
# Procedure, shortened: as §1
# [8] = target: Gal(b1-3)[Fuc(a1-4)]GlcNAc
# Procedure, shortened: as §1
# [9] = target: Gal(b1-3)[Fuc(a1-4)]GlcNAc(b1-3)Gal(b1-3)[Fuc(a1-4)]GlcNAc
# Procedure, shortened: as §1
# [10] = target: Gal(b1-3)[Fuc(a1-4)]GlcNAc(b1-3)Gal(b1-4)GlcNAc
# Procedure, shortened: as §1
# [11] = target: Gal(b1-3)[Fuc(a1-4)]GlcNAc(b1-3)Gal(b1-4)[Fuc(a1-3)]GlcNAc
# Procedure, shortened: as §1
# [12] = target: Gal(b1-3)[GlcNAc(b1-6)]GalNAc
# Procedure, shortened: as §1
# [13] = target: Gal(b1-3)[Neu5Ac(a2-6)]GalNAc
# Procedure, shortened: as §1
# [14] = target: Gal(b1-3)[Neu5Ac(a2-6)]GlcNAc(b1-6)Gal(b1-4)Glc
# Procedure, shortened: as §1
# [15] = target: Gal(b1-3)[Neu5Ac(b2-6)]GalNAc
# Procedure, shortened: as §1
# [16] = target: Gal(b1-4)GalNAc(a1-3)[Fuc(a1-2)]Gal(b1-4)GlcNAc
# Procedure, shortened: as §1
# [17] = target: Gal(b1-4)GalNAc(b1-3)[Fuc(a1-2)]Gal(b1-4)GlcNAc
# Procedure, shortened: as §1
# Gal(b1-4)Glc = target: Gal(b1-4)Glc
# Procedure, shortened: as §1
# Gal(b1-4)Glc6S = target: Gal(b1-4)Glc6S
# Procedure, shortened: as §1
# Gal(b1-4)GlcNAc = target: Gal(b1-4)GlcNAc
# Procedure, shortened: as §1
# [18] = target: Gal(b1-4)GlcNAc(a1-6)Gal(b1-4)GlcNAc
# Procedure, shortened: as §1
# [19] = target: Gal(b1-4)GlcNAc(b1-2)Man(a1-3)[Gal(b1-4)GlcNAc(b1-2)Man(a1-6)]Man(b1-4)GlcNAc(b1-4)GlcNAc
# Procedure, shortened: as §1
# [20] = target: Gal(b1-4)GlcNAc(b1-3)Gal(b1-3)GlcNAc
# Procedure, shortened: as §1
# [21] = target: Gal(b1-4)GlcNAc(b1-3)Gal(b1-4)Glc
# Procedure, shortened: as §1
# [22] = target: Gal(b1-4)GlcNAc(b1-3)Gal(b1-4)GlcNAc
# Procedure, shortened: as §1
# [23] = target: Gal(b1-4)GlcNAc(b1-3)Gal(b1-4)GlcNAc(b1-3)Gal(b1-4)GlcNAc
# Procedure, shortened: as §1
# [24] = target: Gal(b1-4)GlcNAc(b1-3)Gal(b1-4)[Fuc(a1-3)]GlcNAc(b1-3)Gal(b1-4)[Fuc(a1-3)]GlcNAc
# Procedure, shortened: as §1
# [25] = target: Gal(b1-4)GlcNAc(b1-3)GalNAc
# Procedure, shortened: as §1
# [26] = target: Gal(b1-4)GlcNAc(b1-3)[Gal(b1-4)GlcNAc(b1-6)]Gal(b1-4)GlcNAc
# Procedure, shortened: as §1
# [27] = target: Gal(b1-4)GlcNAc(b1-3)[GlcNAc(b1-6)]Gal(b1-4)GlcNAc
# Procedure, shortened: as §1
# [28] = target: Gal(b1-4)GlcNAc(b1-6)Gal(b1-4)GlcNAc
# Procedure, shortened: as §1
# [29] = target: Gal(b1-4)GlcNAc(b1-6)Gal(b1-4)GlcNAc(b1-6)GalNAc
# Procedure, shortened: as §1
# [30] = target: Gal(b1-4)GlcNAc(b1-6)GalNAc
# Procedure, shortened: as §1
# [31] = target: Gal(b1-4)GlcNAc(b1-6)[Gal(b1-3)]GalNAc
# Procedure, shortened: as §1
# Gal3S(b1-3)GalNAc = target: Gal3S(b1-3)GalNAc
# Procedure, shortened: as §1
# Gal3S(b1-3)GlcNAc = target: Gal3S(b1-3)GlcNAc
# Procedure, shortened: as §1
# [32] = target: Gal3S(b1-3)[Fuc(a1-4)]GlcNAc
# Procedure, shortened: as §1
# Gal3S(b1-4)Glc = target: Gal3S(b1-4)Glc
# Procedure, shortened: as §1
# Gal3S(b1-4)Glc6S = target: Gal3S(b1-4)Glc6S
# Procedure, shortened: as §1
binder,measurement,setting,value
B1,glycan array binding signal (z-score),Gal(b1-2)Gal,-0.362
same,glycan array binding signal (z-score),Gal(b1-3)Gal,-0.472
same,glycan array binding signal (z-score),Gal(b1-3)Gal(b1-4)GlcNAc,0.642
same,glycan array binding signal (z-score),Gal(b1-3)GalNAc,0.573
same,glycan array binding signal (z-score),[1],-0.509
same,glycan array binding signal (z-score),[2],-0.375
same,glycan array binding signal (z-score),[3],0.748
same,glycan array binding signal (z-score),Gal(b1-3)GlcNAc,0.168
same,glycan array binding signal (z-score),[4],-0.92
same,glycan array binding signal (z-score),[5],-0.691
same,glycan array binding signal (z-score),[6],-0.164
same,glycan array binding signal (z-score),[7],-0.814
same,glycan array binding signal (z-score),[8],0.741
same,glycan array binding signal (z-score),[9],0.16
same,glycan array binding signal (z-score),[10],0.707
same,glycan array binding signal (z-score),[11],-0.107
same,glycan array binding signal (z-score),[12],0.199
same,glycan array binding signal (z-score),[13],-0.888
same,glycan array binding signal (z-score),[14],-0.69
same,glycan array binding signal (z-score),[15],-0.021
same,glycan array binding signal (z-score),[16],-0.269
same,glycan array binding signal (z-score),[17],-0.655
same,glycan array binding signal (z-score),Gal(b1-4)Glc,-0.038
same,glycan array binding signal (z-score),Gal(b1-4)Glc6S,-0.033
same,glycan array binding signal (z-score),Gal(b1-4)GlcNAc,-0.235
same,glycan array binding signal (z-score),[18],-0.798
same,glycan array binding signal (z-score),[19],-0.706
same,glycan array binding signal (z-score),[20],-0.161
same,glycan array binding signal (z-score),[21],0.482
same,glycan array binding signal (z-score),[22],1.47
same,glycan array binding signal (z-score),[23],-0.456
same,glycan array binding signal (z-score),[24],0.252
same,glycan array binding signal (z-score),[25],-0.158
same,glycan array binding signal (z-score),[26],-0.072
same,glycan array binding signal (z-score),[27],-0.515
same,glycan array binding signal (z-score),[28],-0.437
same,glycan array binding signal (z-score),[29],0.16
same,glycan array binding signal (z-score),[30],-0.268
same,glycan array binding signal (z-score),[31],0.376
same,glycan array binding signal (z-score),Gal3S(b1-3)GalNAc,-1.04
same,glycan array binding signal (z-score),Gal3S(b1-3)GlcNAc,0.427
same,glycan array binding signal (z-score),[32],0.263
same,glycan array binding signal (z-score),Gal3S(b1-4)Glc,-0.59
same,glycan array binding signal (z-score),Gal3S(b1-4)Glc6S,0.183

# Quoted from above (three entries):
binder,measurement,setting,value
B1,glycan array binding signal (z-score),[15],-0.021
same,glycan array binding signal (z-score),[16],-0.269
same,glycan array binding signal (z-score),[17],-0.655
